Strings that start with PEPTIDE1 are HELM notation: dots part the residues, brackets hold end groups and non-standard residues.

A short description of one data set: general procedure: Boc solid-phase peptide synthesis; 4-methyl benzhydrylamine resin. To be noted: whole synthesis, scale 0.5 mmol.
As to “PEPTIDE1{[dR].[dK].[dC].G.[dF].[dC].[dW].[dT].[dW].[dV].[am]}$PEPTIDE1,PEPTIDE1,3:R3-6:R3$$$V2.0”, the crude mass came out at 901 mg.

“PEPTIDE1{R.K.I.K.G.I.W.E.W.V.[am]}$PEPTIDE1,PEPTIDE1,4:R3-8:R3$$$V2.0”: the crude mass was determined as 633 mg.

Regarding “PEPTIDE1{[dK].[dC].G.G.[dC].[dW].[dT].[dW].[dV].[am]}$PEPTIDE1,PEPTIDE1,2:R3-5:R3$$$V2.0”, the crude mass stood at 582 mg.

In the case of “PEPTIDE1{C.R.G.G.C.W.T.W.V.[am]}$PEPTIDE1,PEPTIDE1,1:R3-5:R3$$$V2.0”, the crude mass was found to be 830 mg.

In the case of “PEPTIDE1{[dR].[dK].[dC].F.G.[dC].[dW].[dT].[dW].[dV].[am]}$PEPTIDE1,PEPTIDE1,3:R3-6:R3$$$V2.0”, the crude mass is given as 876 mg.

Take “PEPTIDE1{C.G.G.C.W.T.W.V.[am]}$PEPTIDE1,PEPTIDE1,1:R3-4:R3$$$V2.0”: the crude mass is given as 535 mg.

In turn, “PEPTIDE1{R.K.I.E.G.I.W.K.W.V.[am]}$PEPTIDE1,PEPTIDE1,4:R3-8:R3$$$V2.0” had a crude mass of 829 mg.

Take “PEPTIDE1{K.K.I.G.G.E.W.T.W.V.[am]}$PEPTIDE1,PEPTIDE1,1:R3-6:R3$$$V2.0”: the crude mass is given as 530 mg.

In the case of “PEPTIDE1{R.K.[D-Pen].G.G.C.W.T.W.V.[am]}$PEPTIDE1,PEPTIDE1,3:R3-6:R3$$$V2.0”, the crude mass came out at 933 mg.

Regarding “PEPTIDE1{R.K.[Dap].G.G.D.W.T.W.V.[am]}$PEPTIDE1,PEPTIDE1,3:R3-6:R3$$$V2.0”, the crude mass is on record as 600 mg.

“PEPTIDE1{R.C.I.G.G.C.W.T.W.V.[am]}$PEPTIDE1,PEPTIDE1,2:R3-6:R3$$$V2.0” returned a crude mass of 885 mg.

Regarding “PEPTIDE1{[dR].[dK].[dC].[dF].G.[dC].[dW].[dT].[dW].[dV].[am]}$PEPTIDE1,PEPTIDE1,3:R3-6:R3$$$V2.0”, the crude mass came out at 917 mg.

The substance “PEPTIDE1{[dR].[dK].[dI].G.[dC].[dI].[dW].[dC].[dW].[dV].[am]}$PEPTIDE1,PEPTIDE1,5:R3-8:R3$$$V2.0” had an isolated mass of 15 mg.

“PEPTIDE1{[dC].[dK].[dI].[dC].G.[dI].[dW].[dT].[dW].[dV].[am]}$PEPTIDE1,PEPTIDE1,1:R3-4:R3$$$V2.0” had a crude mass of 704 mg.

Consider “PEPTIDE1{[dR].[dK].[dC].G.G.[dC].[dW].[dT].[dW].[am]}$PEPTIDE1,PEPTIDE1,3:R3-6:R3$$$V2.0”, for which the crude mass was determined as 700 mg.

As for “PEPTIDE1{[dR].[dK].[dC].[dA].F.[dC].[dW].[dT].[dW].[dV].[am]}$PEPTIDE1,PEPTIDE1,3:R3-6:R3$$$V2.0”, the crude mass was 601 mg.

The substance “PEPTIDE1{[dR].[dK].[dC].G.F.[dC].[dW].[dT].[dW].[dV].[am]}$PEPTIDE1,PEPTIDE1,3:R3-6:R3$$$V2.0” yielded a crude mass of 948 mg.

In the case of “PEPTIDE1{[dR].[dK].[dC].[Ava].[dC].[dW].[dT].[dW].[dV].[am]}$PEPTIDE1,PEPTIDE1,3:R3-5:R3$$$V2.0”, the crude mass was 796 mg.

“PEPTIDE1{R.K.[D-Pen].G.G.[D-Pen].W.T.W.V.[am]}$PEPTIDE1,PEPTIDE1,3:R3-6:R3$$$V2.0” displayed a crude mass of 1148 mg.

On to “PEPTIDE1{R.K.I.G.G.C.W.T.W.C.[am]}$PEPTIDE1,PEPTIDE1,6:R3-10:R3$$$V2.0”, for which the crude mass is 1111 mg.

“PEPTIDE1{K.C.G.G.C.W.T.W.V.[am]}$PEPTIDE1,PEPTIDE1,2:R3-5:R3$$$V2.0” displayed a crude mass of 810 mg.

With “PEPTIDE1{R.K.C.G.G.C.W.T.W.V.[am]}$PEPTIDE1,PEPTIDE1,3:R3-6:R3$$$V2.0”, the crude mass amounted to 1144 mg.

For “PEPTIDE1{E.K.I.G.G.K.W.T.W.V.[am]}$PEPTIDE1,PEPTIDE1,1:R3-6:R3$$$V2.0”, the crude mass is 321 mg.

Staying with this data set, now noted: whole synthesis, scale 0.75 mmol.
For “PEPTIDE1{[dR].[dK].[dC].K.F.[dC].[dW].[dT].[dW].[dV].[am]}$PEPTIDE1,PEPTIDE1,3:R3-6:R3$$$V2.0”, the crude mass is 864 mg and the isolated mass amounted to 76 mg.

Source of the values: patent US5753617A (Centocor, Inc., priority 1995, dated 1998).
